This series concerns the target T1, ghrelin (L-enantiomer, rat) (Rattus norvegicus) (UniProt Q9QYH7).
T1 sequence: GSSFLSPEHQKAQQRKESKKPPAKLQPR
Description: SPR. The conditions noted are these: L-RNA; synthetic protein; synthetic backbone; mirror-image nucleic acid; variant of B11.

Chains of the proteins cited; added tags and fusions are not shown. Lines headed by an entry give the natural chain unless they say otherwise; changes in a name come on top.
UniProt Q9QYH7: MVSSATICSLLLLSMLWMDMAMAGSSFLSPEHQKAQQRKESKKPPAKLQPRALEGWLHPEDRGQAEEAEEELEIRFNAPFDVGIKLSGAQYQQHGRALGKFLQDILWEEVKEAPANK

The exact form of at least one protein or probe is not confirmed. Protein sequences can lack the tags named with them.

The source of these data is patent US20060257867.

“CGUGUGAGGCAAUAAAACUUAAGUCCGAAGGUAACCAAUCCUACACG [B11trc Spiegelmer / NOX-SOT-C (B11)]”: the binding result is recorded as “binds”.
